Tests used:
LNCaP tumor-bearing mice = assay: PET/CT imaging of 68Ga-labeled ligands; assay type: in vivo; conditions: for Visualization of tumor xenografts in PET images: 1 h post-injection
[1] = system: LNCaP tumor and major mouse organs/tissues; assay: Radiation dosimetry calculation with OLINDA software from biodistribution data; conditions: for Organ doses: 25-g mouse
Source text: The biodistribution data (available in the Supplemental Table s 5- 6) were used to determine the kinetics input values required by OLINDA. First, each of the values was decayed to its corresponding time point (the values on the table are shown at injection time). Then the different time-points of the uptake data (%IA/g) for each organ were fitted to both mono- exponential ( ) and bi-exponential ( ) functions using in-house software developed in Python. The best fit was selected based on maximizing the coefficient of determination (R2) of the fit and minimizing the residuals. The areas under the curves were analytically calculated based on the parameters obtained from the best fit of each organ and this provided the kinetic input values required by OLINDA.
In the mouse case, the adrenals, blood, fat, and muscle are not modeled in the phantom. These organs were grouped together and included in what OLINDA calls the remainder of the body .
Lastly, the numbers of decays in the tumors were also calculated based on the biodistribution data of the mice and the values were inputted into the sphere model available in OLINDA.

[2] = target organ Remainder of the body
[3] = target organ Urinary bladder wall

Compound: O=C([O-])CN1CCN(CC(=O)[O-])CCN(CC(=O)NCC2CCC(C(=O)NC(Cc3c4ccccc4cc4ccccc34)C(=O)NCCCCC(NC(=O)NC(CCCC(=O)O)C(=O)O)C(=O)O)CC2)CCN(CC(=O)[O-])CC1.[68Ga+3] (centres unmarked) [[^68Ga]Ga-HTK03149]
- Visualization of tumor xenografts in PET images (LNCaP tumor-bearing mice): clearly visualized
- Tumor uptake in PET image with blocking (LNCaP tumor-bearing mice; co-injection of DCFPyL (0.5 mg)): close to the background level

Compound: O=C([O-])CN1CCN(CC(=O)[O-])CCN(CC(=O)NCC2CCC(C(=O)NC(Cc3c4ccccc4cc4ccccc34)C(=O)NCCCCC(NC(=O)NC(CCCC(=O)O)C(=O)O)C(=O)O)CC2)CCN(CC(=O)[O-])CC1.[177Lu+3] (centres unmarked) [[^177Lu]Lu-HTK03149]
- Decrease in kidney absorbed dose compared to [177Lu]Lu-PSMA-617 [1]: 70%
- Increase in tumor-to-kidney absorbed dose ratio compared to [177Lu]Lu-PSMA-617 [1]: 7.1 fold
- Increase in tumor absorbed dose compared to [177Lu]Lu-PSMA-617 ([1]; LNCaP tumors, regardless of sphere size): 145%
- Absorbed dose ratio [177Lu]Lu-HTK03149-to-[177Lu]Lu-PSMA-617 ([1]; intestines, stomach, heart, liver, lungs, pancreas, skeleton, spleen, testes and thyroid): 1.64 - 10.4
- Absorbed dose ratio [177Lu]Lu-HTK03149-to-[177Lu]Lu-PSMA-617 ([1]; kidneys): 0.30
- Radiation dose, unit density sphere model for LNCaP tumors ([1]; sphere/tumor volume 0.01 mL): 7.53E+04 mGy/MBq
- Radiation dose, unit density sphere model for LNCaP tumors ([1]; sphere/tumor volume 0.1 mL): 7.87E+03 mGy/MBq
- Radiation dose, unit density sphere model for LNCaP tumors ([1]; sphere/tumor volume 0.5 mL): 1.60E+03 mGy/MBq
- Radiation dose, unit density sphere model for LNCaP tumors ([1]; sphere/tumor volume 1 mL): 8.06E+02 mGy/MBq
- Radiation dose, unit density sphere model for LNCaP tumors ([1]; sphere/tumor volume 2 mL): 4.05E+02 mGy/MBq
- Radiation dose, unit density sphere model for LNCaP tumors ([1]; sphere/tumor volume 4 mL): 2.03E+02 mGy/MBq
- Radiation dose, unit density sphere model for LNCaP tumors ([1]; sphere/tumor volume 6 mL): 1.36E+02 mGy/MBq
- Radiation dose, unit density sphere model for LNCaP tumors ([1]; sphere/tumor volume 8 mL): 1.02E+02 mGy/MBq
- Radiation dose, unit density sphere model for LNCaP tumors ([1]; sphere/tumor volume 10 mL): 8.17E+01 mGy/MBq
- Radiation dose, unit density sphere model for LNCaP tumors ([1]; sphere/tumor volume 20 mL): 4.10E+01 mGy/MBq
- Radiation dose, unit density sphere model for LNCaP tumors ([1]; sphere/tumor volume 40 mL): 2.06E+01 mGy/MBq
- Radiation dose, unit density sphere model for LNCaP tumors ([1]; sphere/tumor volume 60 mL): 1.37E+01 mGy/MBq
- Radiation dose, unit density sphere model for LNCaP tumors ([1]; sphere/tumor volume 80 mL): 1.03E+01 mGy/MBq
- Radiation dose, unit density sphere model for LNCaP tumors ([1]; sphere/tumor volume 100 mL): 8.28E+00 mGy/MBq
- Radiation dose, unit density sphere model for LNCaP tumors ([1]; sphere/tumor volume 300 mL): 2.79E+00 mGy/MBq
- Radiation dose, unit density sphere model for LNCaP tumors ([1]; sphere/tumor volume 400 mL): 2.10E+00 mGy/MBq
- Radiation dose, unit density sphere model for LNCaP tumors ([1]; sphere/tumor volume 500 mL): 1.68E+00 mGy/MBq
- Radiation dose, unit density sphere model for LNCaP tumors ([1]; sphere/tumor volume 600 mL): 1.40E+00 mGy/MBq
- Radiation dose, unit density sphere model for LNCaP tumors ([1]; sphere/tumor volume 1000 mL): 8.48E-01 mGy/MBq
- Radiation dose, unit density sphere model for LNCaP tumors ([1]; sphere/tumor volume 2000 mL): 4.29E-01 mGy/MBq
- Radiation dose, unit density sphere model for LNCaP tumors ([1]; sphere/tumor volume 3000 mL): 2.88E-01 mGy/MBq
- Radiation dose, unit density sphere model for LNCaP tumors ([1]; sphere/tumor volume 4000 mL): 2.17E-01 mGy/MBq
- Radiation dose, unit density sphere model for LNCaP tumors ([1]; sphere/tumor volume 5000 mL): 1.75E-01 mGy/MBq
- Radiation dose, unit density sphere model for LNCaP tumors ([1]; sphere/tumor volume 6000 mL): 1.46E-01 mGy/MBq
- Organ doses ([1]; target organ Brain): 2.35E+00 mGy/MBq
- Organ doses ([1]; target organ Heart): 9.38E+00 mGy/MBq
- Organ doses ([1]; target organ Kidneys): 6.72E+01 mGy/MBq
- Organ doses ([1]; target organ Large intestine): 1.59E+01 mGy/MBq
- Organ doses ([1]; target organ Liver): 2.09E+01 mGy/MBq
- Organ doses ([1]; target organ Lungs): 1.62E+01 mGy/MBq
- Organ doses ([1]; target organ Pancreas): 7.72E+00 mGy/MBq
- Organ doses [1, 2]: 8.95E+00 mGy/MBq
- Organ doses ([1]; target organ Skeleton): 7.45E+00 mGy/MBq
- Organ doses ([1]; target organ Small intestine): 1.57E+01 mGy/MBq
- Organ doses ([1]; target organ Spleen): 1.89E+01 mGy/MBq
- Organ doses ([1]; target organ Stomach wall): 1.57E+01 mGy/MBq
- Organ doses ([1]; target organ Testes): 8.72E+00 mGy/MBq
- Organ doses ([1]; target organ Thyroid): 1.29E+01 mGy/MBq
- Organ doses [1, 3]: 5.84E+02 mGy/MBq

Compound: [^177Lu]Lu-PSMA-617
- Radiation dose, unit density sphere model for LNCaP tumors ([1]; sphere/tumor volume 0.01 mL): 3.07E+04 mGy/MBq
- Radiation dose, unit density sphere model for LNCaP tumors ([1]; sphere/tumor volume 0.1 mL): 3.21E+03 mGy/MBq
- Radiation dose, unit density sphere model for LNCaP tumors ([1]; sphere/tumor volume 0.5 mL): 6.51E+02 mGy/MBq
- Radiation dose, unit density sphere model for LNCaP tumors ([1]; sphere/tumor volume 1 mL): 3.28E+02 mGy/MBq
- Radiation dose, unit density sphere model for LNCaP tumors ([1]; sphere/tumor volume 2 mL): 1.65E+02 mGy/MBq
- Radiation dose, unit density sphere model for LNCaP tumors ([1]; sphere/tumor volume 4 mL): 8.28E+01 mGy/MBq
- Radiation dose, unit density sphere model for LNCaP tumors ([1]; sphere/tumor volume 6 mL): 5.53E+01 mGy/MBq
- Radiation dose, unit density sphere model for LNCaP tumors ([1]; sphere/tumor volume 8 mL): 4.15E+01 mGy/MBq
- Radiation dose, unit density sphere model for LNCaP tumors ([1]; sphere/tumor volume 10 mL): 3.33E+01 mGy/MBq
- Radiation dose, unit density sphere model for LNCaP tumors ([1]; sphere/tumor volume 20 mL): 1.67E+01 mGy/MBq
- Radiation dose, unit density sphere model for LNCaP tumors ([1]; sphere/tumor volume 40 mL): 8.38E+00 mGy/MBq
- Radiation dose, unit density sphere model for LNCaP tumors ([1]; sphere/tumor volume 60 mL): 5.60E+00 mGy/MBq
- Radiation dose, unit density sphere model for LNCaP tumors ([1]; sphere/tumor volume 80 mL): 4.21E+00 mGy/MBq
- Radiation dose, unit density sphere model for LNCaP tumors ([1]; sphere/tumor volume 100 mL): 3.37E+00 mGy/MBq
- Radiation dose, unit density sphere model for LNCaP tumors ([1]; sphere/tumor volume 300 mL): 1.13E+00 mGy/MBq
- Radiation dose, unit density sphere model for LNCaP tumors ([1]; sphere/tumor volume 400 mL): 8.54E-01 mGy/MBq
- Radiation dose, unit density sphere model for LNCaP tumors ([1]; sphere/tumor volume 500 mL): 6.85E-01 mGy/MBq
- Radiation dose, unit density sphere model for LNCaP tumors ([1]; sphere/tumor volume 600 mL): 5.72E-01 mGy/MBq
- Radiation dose, unit density sphere model for LNCaP tumors ([1]; sphere/tumor volume 1000 mL): 3.45E-01 mGy/MBq
- Radiation dose, unit density sphere model for LNCaP tumors ([1]; sphere/tumor volume 2000 mL): 1.75E-01 mGy/MBq
- Radiation dose, unit density sphere model for LNCaP tumors ([1]; sphere/tumor volume 3000 mL): 1.17E-01 mGy/MBq
- Radiation dose, unit density sphere model for LNCaP tumors ([1]; sphere/tumor volume 4000 mL): 8.86E-02 mGy/MBq
- Radiation dose, unit density sphere model for LNCaP tumors ([1]; sphere/tumor volume 5000 mL): 7.12E-02 mGy/MBq
- Radiation dose, unit density sphere model for LNCaP tumors ([1]; sphere/tumor volume 6000 mL): 5.96E-02 mGy/MBq
- Organ doses ([1]; target organ Brain): 1.79E+00 mGy/MBq
- Organ doses ([1]; target organ Heart): 1.90E+00 mGy/MBq
- Organ doses ([1]; target organ Kidneys): 2.23E+02 mGy/MBq
- Organ doses ([1]; target organ Large intestine): 2.42E+00 mGy/MBq
- Organ doses ([1]; target organ Liver): 3.84E+00 mGy/MBq
- Organ doses ([1]; target organ Lungs): 4.46E+00 mGy/MBq
- Organ doses ([1]; target organ Pancreas): 3.60E+00 mGy/MBq
- Organ doses [1, 2]: 6.89E+00 mGy/MBq
- Organ doses ([1]; target organ Skeleton): 1.25E+00 mGy/MBq
- Organ doses ([1]; target organ Small intestine): 2.08E+00 mGy/MBq
- Organ doses ([1]; target organ Spleen): 1.15E+01 mGy/MBq
- Organ doses ([1]; target organ Stomach wall): 1.51E+00 mGy/MBq
- Organ doses ([1]; target organ Testes): 3.04E+00 mGy/MBq
- Organ doses ([1]; target organ Thyroid): 2.78E+00 mGy/MBq
- Organ doses [1, 3]: 5.76E+02 mGy/MBq

Compound: O=C([O-])CN1CCN(CC(=O)[O-])CCN(CC(=O)NCC2CCC(C(=O)NC(Cc3c4ccccc4cc4ccccc34)C(=O)NCCCCC(NC(=O)NC(CC(=O)O)C(=O)O)C(=O)O)CC2)CCN(CC(=O)[O-])CC1.[68Ga+3] (centres unmarked) [[^68Ga]Ga-HTK03161]
- Visualization of tumor xenografts in PET images (LNCaP tumor-bearing mice): clearly visualized

Reference: article PMC9475448, “What a difference a methylene makes: replacing Glu with Asp or Aad in the Lys-urea-Glu pharmacophore of PSMA-targeting radioligands to reduce kidney and salivary gland uptake” (Theranostics, 2022)
